Results are given in words; binding and its absence hold for the method and conditions named. Binding seen in cells or lysates may run through a third protein. Some binding calls cover weakened binding; strength is not graded here.
Target: Fyn kinase (mouse (endogenous in Oli-neu)) (UniProt P39688)
Assay: co-IP; Fyn immunoprecipitated from precleared Oli-neu lysates with rabbit anti-Fyn antibody bound to Protein A-Sepharose, 4 hours at 4°C; lysis buffer 50 mM Tris pH 7.4, 150 mM NaCl, 1 mM EDTA, 1% Nonidet P-40, 0.25% sodium deoxycholate; Western blot of the precipitate

Chains of the proteins cited; added tags and fusions are not shown.
UniProt P39688: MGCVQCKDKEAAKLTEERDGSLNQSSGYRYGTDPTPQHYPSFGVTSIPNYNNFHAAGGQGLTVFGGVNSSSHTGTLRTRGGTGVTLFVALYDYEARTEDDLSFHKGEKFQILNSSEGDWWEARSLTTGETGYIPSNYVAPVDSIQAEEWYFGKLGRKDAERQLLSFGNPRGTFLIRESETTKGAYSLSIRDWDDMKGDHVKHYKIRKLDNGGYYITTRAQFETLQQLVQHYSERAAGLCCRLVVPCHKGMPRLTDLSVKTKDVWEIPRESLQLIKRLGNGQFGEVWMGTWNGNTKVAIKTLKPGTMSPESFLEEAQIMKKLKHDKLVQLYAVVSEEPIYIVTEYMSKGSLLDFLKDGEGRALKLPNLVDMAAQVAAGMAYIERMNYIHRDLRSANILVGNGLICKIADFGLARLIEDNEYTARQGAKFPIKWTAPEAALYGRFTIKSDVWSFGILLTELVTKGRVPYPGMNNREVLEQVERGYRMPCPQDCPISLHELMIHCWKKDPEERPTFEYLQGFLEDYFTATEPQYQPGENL

B1: p130Cas (crk-associated substrate) (protein, UniProt Q61140 1-874)
chain: MTVPNVLAKALYDNVAESPDELSFRKGDIMTVLERDTQGLDGWWLCSLHGRQGIVPGNRLKILVGMYDKKPVGPGPGPPATPPQPQPSLPQGVHAPVPPASQYSPMLPTAYQPQSDNVYLVPTPSKTQQGLYQAPGPNPQFQSPPAKQTSTFSKQTPHHSFPSPATDLYQVPPGPGSPAQDIYQVPPSAGIGHDIYQVPPSLDTRGWEGTKPPAKVVVPTRVGQGYVYEAAQTEQDEYDTPRHLLAPGPQDIYDVPPVRGLLPNQYGQEVYDTPPMAVKGPNGRDPLLDVYDVPPSVEKGLLSSSHHSVYDVPPSVSKDVPDGPLLREETYDVPPAFAKPKPFDPTRHPLILAAPPPDSPAAEDVYDVPPPAPDLYDVPPGLRRPGPGTLYDVPRERVLPPEVADGSVVDDGVYAVPPPAEREAPTDGKRLSASSTGSTRSSQSASSLEVVVPGREPLELEVAVESLARLQQGVSTTVAHLLDLVGSASGPGGWRGTSEPQEPPAQDLKAAVAAVHGAVHELLEFARGAVSNATHTSDRTLHAKLSRQLQKMEDVYQTLVVHGQVLDSGRGSPGFTPEDLDRLVACSRAVPEDAKQLASFLHGNASLLFRRTKAPGPGPEGSSSLHPNPTDKASSIQSRPLPSPPKFTSQDSPDGQYENSEGGWMEDYDYVHLQGKEEFEKTQKELLERGNIMRQGKGQLELQQLKQFERLEQEVSRPIDHDLANWTPAQPLVPGRTGGLGPSDRQLLLFYLEQCEANLTTLTDAVDAFFTAVATNQPPKIFVAHSKFVILSAHKLVFIGDTLSRQAKAADVRSQVTHYSNLLCDLLRGIVATTKAAALQYPSPSAAQDMVDRVKELGHSTQQFRRVLGQLAAA
binding: binds
